Measured values taken from PubChem BioAssay AID1794845 (National Center for Advancing Translational Sciences (NCATS), 2023).
In all, about 6,900 compounds went through this assay and fewer than 10 were called active. The call rests on the fitted dose curve; in most records, active means well fitted curve in the direction sought with a large enough effect; inconclusive means small, poorly fitted or top-dose-only effect, or another doubt; inactive means no such curve, though single readings can be large or run the other way. The list shows a part of the results.

Sequences of proteins named here, by UniProt entry; tags and fusion partners are left off. A change or cut given only in a name is not applied to a line headed by its entry.
UniProt C7C422: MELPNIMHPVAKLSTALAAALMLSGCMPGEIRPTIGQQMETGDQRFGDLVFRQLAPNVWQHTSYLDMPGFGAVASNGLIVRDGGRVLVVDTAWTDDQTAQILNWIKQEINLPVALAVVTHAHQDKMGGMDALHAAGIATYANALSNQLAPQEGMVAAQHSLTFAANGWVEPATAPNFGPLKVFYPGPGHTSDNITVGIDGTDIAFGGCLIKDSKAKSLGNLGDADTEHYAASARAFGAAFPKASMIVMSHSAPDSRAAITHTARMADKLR

What follows are compounds tested against Metallo-beta-lactamase type 2 (Klebsiella pneumoniae) (UniProt C7C422) (assay: qHTS to identify inhibitors of the New Delhi Metallo-beta-lactamase (NDM): primary screen against the NCATS Gemini Collection). Details: NDM-1 enzyme, meropenem hydrolysis, absorbance 300 nm; at 38.4 µM (top of the series) unless noted.
How it was run: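 Meropenem hydrolysis (50 uM final) by 2 nM NDM-1 read as 300 nm absorbance after 30 min, following >30 min compound–enzyme preincubation in HEPES pH 7.0 with 1 uM ZnSO4 and 0.01% Tween20.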
Further: % of control where 0% means no effect.

Activity % (negative = inhibition), inactive:
Cc1ccc(S(=O)(=O)N2CCc3nc(N(C)Cc4cccnc4)[nH]c(=O)c3CC2)cc1 27.5%, COc1ccc(-c2noc(-c3cccn3CC(=O)NC(C)C)n2)cc1F 0.713%, CCc1noc(-c2cn(C3CCN(C(=O)Cc4cccc(OC)c4)CC3)nn2)n1 2.68%, CCN(CC1CCN(CCc2ccccc2C)CC1)C(=O)c1csc(C)n1 -2.71%, COc1ccc(CN2C(=O)O[C@@H]3CN(c4nc(C)cc(C)n4)C[C@@H]32)cc1OC 3.49%, COCCOC1CCOC2(CCN(C(=O)c3cnccn3)CC2)C1 (stereo not given) -0.664%, c1cc(-c2noc([C@@H]3CCCN3Cc3ncc[nH]3)n2)cc(N2CCCC2)n1 -4.89% [at 57.5 µM], COCC(=O)N[C@H]1C[C@H]2C(=O)NC[C@@H](CCC(=O)N3CCN(c4ccccc4)CC3)N2C1 0.0438%, Cc1noc(C)c1CN1CCC2(CC1)C(C(=O)O)CC(=O)N2C (stereo not given) 0.497%, CN(C)C[C@@H]1CN(C)C[C@H]1NC(=O)c1cnccn1 3.3%, CCCNC(=O)C1N(c2ccc(OC)cc2)C(=O)C12CCCCC2 (stereo not given) -11.9%, CN(C)c1cccc(C(=O)NC2CCN(c3cc(-c4cccs4)[nH]n3)C2)c1 (stereo not given) -5.08%, COc1ccc([C@@H]2CN(C(=O)CCc3ccsc3)C[C@H]2N(C)C)cc1 1.58%, COc1cccc(CCC(=O)N2CCCCC2c2nc(-c3ccncc3)n[nH]2)c1 (stereo not given) -0.798%, O=C(CSc1ccncc1)N1CCN2C(=O)N(Cc3ccccc3)C(=O)[C@H]2C1 4.04% [at 57.5 µM], O=C(O)[C@H]1C[C@H](C(=O)NCc2ccncc2)CN(C(=O)C2CCCC2)C1 -1.7%, Cc1ccc(NC(=O)[C@@H]2OCC(=O)N(C)[C@H]2c2ccccc2)cc1 -3.48%, CCNC(=O)N1CCCC(Cc2noc(-c3ccccc3)n2)C1 (stereo not given) 2.94%, COCC1CN(C(C)=O)CC12CCN(C(=O)CC1CCCCC1)CC2 (stereo not given) -1.78%, Cc1noc(-c2cccs2)c1C(=O)NCCC(c1ccccc1)c1ccccc1 13.3%, CN(CCO)C[C@@H]1CN(C(=O)CCc2nc3ccc(F)cc3[nH]2)C[C@@H]1CO 5.44%, COc1cccc(CNC(=O)[C@@H]2C[C@@H](O)CN2C2CCN(C(=O)Cc3c[nH]c4ccccc34)CC2)c1 9.47%, O=C(c1ccccc1-c1ncc[nH]1)N1CCOC(Cc2cccc(F)c2)C1 (stereo not given) -18%, O=C(Cn1cccc1-c1nc(-c2ccc(F)cc2)no1)NCc1ccccc1Cl -2.31%, CS(=O)(=O)N1CCCN(C(=O)CCCc2ccccc2)c2ccccc21 6.41%, COCCCNC(=O)N1CCCC(c2[nH]ccc2C(N)=O)C1 (stereo not given) -1.34%, O=C(Cn1nc2c(cc1=O)CCCCC2)Nc1nnc(C2CCCO2)s1 (stereo not given) 0.986%, CCC1Oc2ccc(NC(=O)Cc3ccc(OC)cc3)cc2CN(Cc2ccc3c(c2)OCO3)C1=O (stereo not given) 10.5%, COCC(=O)N[C@@H]1CCC[C@@H](C(=O)NC2CC2)CC(=O)N(C)C1 0.266% [at 57.5 µM], COc1ccc(C)cc1NC(=O)CCC[C@@H]1[C@H]2CCCN3CCC[C@@H](CN1Cc1cccnc1)[C@@H]23 -2.09%, COc1ccc([C@@H](NC(=O)c2coc3ccccc23)C2CC(O)C2)cn1 (stereo not given in full) 0.545%, CC(C)c1cc(C(=O)N[C@@H]2COCC[C@@H]2Oc2cccc(F)c2)nc(N)n1 2.46%, O=C(c1ccc(F)cc1)N1CCC(OCCOc2cccnc2)CC1 18.3%, COc1ccc(C(=O)N2CCCN(c3nnc4ccc(Cl)cn34)CC2)cn1 -9.23%, O=C1CCN(Cc2ccncc2)CCCC(C(=O)NCCCN2CCCC2=O)CCN1 (stereo not given) 7%, Cc1nn(C)cc1C(=O)N1C[C@@H](CO)[C@H](c2ccncc2)C1 0.936%, CCOC(=O)N1CCC(NC(=O)c2ccccc2C2CCNC2)CC1 (stereo not given) 8.32%, CCCC(=O)N1CCC(O)(c2ccccc2)[C@H](N2CCCC2)C1 (stereo not given in full) 3.37%, O=C(c1ccccc1F)N1CCC2(CC(c3cccc(C(F)(F)F)c3)=NO2)C1 (stereo not given) 8.37%, CCCCc1cc(C[C@H]2CNCC[C@H]2CC(=O)N2CCC(Cc3ccccc3)CC2)no1 3.38%, CN1C(=O)c2cccn2CC1CNC(=O)c1cccc2nccnc12 (stereo not given) -0.0294%, O=C1NC[C@@H](CCC(=O)N2CCc3ccccc32)N2C[C@@H](NCc3ccc(CO)o3)C[C@@H]12 0.433%, CC(=O)Nc1cccc(-c2cc3c(cn2)CN(Cc2ccccc2)CCN3)c1 8.71% [at 57.5 µM], CCCNC(=O)C1CCc2ncc(-c3ccc(OC)cc3)n2C1 (stereo not given) 8.93%, COc1cccc(CCC(=O)N2CCC3(CC2)N=C(c2ccccc2)NO3)c1 16.3%, COCCN1C(=O)CS(=O)C12CCN(S(=O)(=O)c1ccccc1)CC2 (stereo not given) 12.7%, CCOCC(=O)Nc1nn(-c2ccc(F)cc2)c2cccc(N3CCOC3=O)c12 5.81%, Cc1cnc(CCNC(=O)c2cccs2)n1C1CCC1 0.936%, CCCNC(=O)O[C@@H]1CC[C@]2(C)[C@H](CC[C@@H](O)[C@H]2CC(=O)N2CCCC2)[C@]1(C)CO -0.131% [at 57.5 µM], COc1cccc(-c2cn3c(n2)N(C(=O)Cc2cccs2)CCC3)c1 21%, CNC(=O)C1(N2CCC[C@H]2C(=O)N(C)Cc2cccnc2)CCOCC1 46.2% [at 57.5 µM], CC(C)c1noc(-c2cn(C3CCN(C(=O)c4ccc(Cl)s4)C3)nn2)n1 (stereo not given) 22.1%, CN(C)C[C@@H]1CN(c2ccncn2)C[C@H]1NC(=O)COc1ccccc1 25.5%, Cn1cc(CN2CCN(c3ccc(C#N)cn3)CC2)c(-c2ccccc2)n1 12.2%, Cc1ccc(C)c(-c2cc(C(=O)N3CCCC3c3nncn3C(C)C)[nH]n2)c1 (stereo not given) -0.954%, CNC(=O)[C@@H]1CN(C(=O)CCc2cccc(OC)c2)C[C@H]1c1n[nH]c(C)n1 7.81%, O=C1CCC(C(=O)N2CCOCC2)CN1CCCc1ccccc1 (stereo not given) -5.82%, Cn1nc(C2CCCNC2)c2c(C(=O)NC3CC3)cc(C3CC3)nc21 (stereo not given) 2.23%, COc1ccc(C(=O)N2CCC(c3ncc(C)n3C(C)C)C2)cc1 (stereo not given) -1.26%, COCC1CN(Cc2ccc(C(C)C)cc2)CC12CCNCC2 (stereo not given) 41.6%, O=C1CCN(C(=O)C2(c3ccccc3)CC2)CCCCCCN1 -17.5%, O=C(NCCNc1cccnc1)C1CCC(=O)N(C2CC2)C1 (stereo not given) 13.8%, CC(C)(Oc1nn(CCN2CCOCC2)c2ccccc12)C(=O)NCc1ccncc1 12.5% [at 57.5 µM], c1ccc(CCN(Cc2ccccc2)[C@H]2C[C@H]3CCOC[C@@]3(c3ccccc3)C2)cc1 -0.699%, NC(=O)c1ccc(O[C@@H]2COCC[C@H]2NC(=O)Cc2ccc(O)cc2)cc1 0.465%, CCCOCC(=O)N1CCCC(c2cc(N3CCCC3)nc(C)n2)C1 (stereo not given) 2.17%, Cc1ccccc1N1CCCN(Cc2ccccc2OCCO)CC1 9.05%, C[S+](=O)([O-])N1CCC(c2nnc3n2C(C(=O)NC2CCCCC2)CC3)CC1 (stereo not given) 13.9%, Cc1cccc(OCC(=O)N2CCCC(c3[nH]ccc3C(N)=O)C2)c1 (stereo not given) -2.52%, CCOc1ccc(C(=O)NC2CCN(c3cc(-c4ccc(OC)cc4)[nH]n3)C2)cc1OCC (stereo not given) -0.635%, O=C(Cc1ccccc1)Nc1ccc2n(c1=O)C[C@H]1C[C@@H]2CN(S(=O)(=O)c2ccc(Cl)cc2)C1 20.8%, CCN(CC)C(=O)CC1Sc2ncccc2N(CC(C)C)C1=O (stereo not given) 4.57%, CC(C)N1C[C@@H](CO)[C@H](c2nc(-c3cccnc3)no2)C1 19.7%, Cc1nnc2n1C(C)CN(C(=O)CCn1cnc3ccccc3c1=O)C2 (stereo not given) 2.76%, COc1cccc([S+](=O)([O-])N2CCn3cc(C(=O)NCc4ccc(Cl)nc4)nc3C2)c1 0.228%, COc1ccccc1CC(=O)N1CCN(c2cc(-c3cccs3)[nH]n2)CC1 2.18%, O=C(c1cccnc1)N1CC[C@H](c2nc3ccccc3o2)C1 -1.74% [at 57.5 µM], CC(c1ccc(-c2ccc(CC(=O)O)cn2)cc1)N1CCCCC1 (stereo not given) 4.97%, CCn1nc2n(c1=O)CCN(Cc1cc(C)ccc1C)C2=O -1.37%, Cn1ncc(N2CCC(C(=O)N3CCC(C(N)=O)(N4CCCCC4)CC3)C2)cc1=O (stereo not given) 6.47%, CC(C)(C)c1ccc(CN2CC3(COCC2=O)CN(c2cnccn2)C3)cc1 7.28% [at 57.5 µM], COc1ccc(-n2nc(C3CCCN(C(=O)c4ccc(Cl)nc4)C3)[nH]c2=O)cc1 (stereo not given) -3.19%, CS(=O)(=O)CCNC(=O)C1CCCN(C2CCN(Cc3cccnc3)CC2)C1 (stereo not given) 0.81%, COc1ccc(NC(=O)c2c(C)nc3n2CCC(Nc2ccccc2C)C3)cn1 (stereo not given) 9.21% [at 57.5 µM], O=c1[nH]c(N2CCc3ccccc3C2)nc2c1CCN(Cc1cccs1)CC2 -4.65%
